Experimental data as given in the supplement of paper PMC10849652.
The list shows a part of the results.

Chains of the proteins cited; added tags and fusions are not shown. Lines headed by an entry give the natural chain unless they say otherwise; changes in a name come on top.
UniProt O43822: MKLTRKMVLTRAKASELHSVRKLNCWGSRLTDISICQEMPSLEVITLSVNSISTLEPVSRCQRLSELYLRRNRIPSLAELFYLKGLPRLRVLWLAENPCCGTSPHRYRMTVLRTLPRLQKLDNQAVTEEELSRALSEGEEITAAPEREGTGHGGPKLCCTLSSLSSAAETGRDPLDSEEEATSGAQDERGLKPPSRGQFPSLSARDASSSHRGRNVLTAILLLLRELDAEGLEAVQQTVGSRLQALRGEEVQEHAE
UniProt P49918: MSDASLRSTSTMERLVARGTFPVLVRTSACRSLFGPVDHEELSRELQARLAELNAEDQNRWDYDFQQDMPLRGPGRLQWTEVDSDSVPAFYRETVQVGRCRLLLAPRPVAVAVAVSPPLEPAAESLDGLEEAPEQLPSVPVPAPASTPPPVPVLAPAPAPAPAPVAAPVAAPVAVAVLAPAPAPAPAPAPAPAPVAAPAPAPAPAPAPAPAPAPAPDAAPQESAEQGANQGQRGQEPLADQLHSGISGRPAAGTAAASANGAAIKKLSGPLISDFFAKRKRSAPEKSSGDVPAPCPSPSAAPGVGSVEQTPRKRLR
UniProt Q9H3Q1: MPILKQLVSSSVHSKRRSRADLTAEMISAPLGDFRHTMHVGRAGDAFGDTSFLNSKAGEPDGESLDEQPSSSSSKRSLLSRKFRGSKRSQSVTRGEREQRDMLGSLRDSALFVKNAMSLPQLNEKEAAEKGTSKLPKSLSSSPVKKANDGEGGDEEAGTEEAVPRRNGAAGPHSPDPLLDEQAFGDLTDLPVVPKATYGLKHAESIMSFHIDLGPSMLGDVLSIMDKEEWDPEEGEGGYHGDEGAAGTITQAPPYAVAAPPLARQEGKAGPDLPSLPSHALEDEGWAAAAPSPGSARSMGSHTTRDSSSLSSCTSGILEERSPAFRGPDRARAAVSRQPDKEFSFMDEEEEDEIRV
UniProt Q8TEP8: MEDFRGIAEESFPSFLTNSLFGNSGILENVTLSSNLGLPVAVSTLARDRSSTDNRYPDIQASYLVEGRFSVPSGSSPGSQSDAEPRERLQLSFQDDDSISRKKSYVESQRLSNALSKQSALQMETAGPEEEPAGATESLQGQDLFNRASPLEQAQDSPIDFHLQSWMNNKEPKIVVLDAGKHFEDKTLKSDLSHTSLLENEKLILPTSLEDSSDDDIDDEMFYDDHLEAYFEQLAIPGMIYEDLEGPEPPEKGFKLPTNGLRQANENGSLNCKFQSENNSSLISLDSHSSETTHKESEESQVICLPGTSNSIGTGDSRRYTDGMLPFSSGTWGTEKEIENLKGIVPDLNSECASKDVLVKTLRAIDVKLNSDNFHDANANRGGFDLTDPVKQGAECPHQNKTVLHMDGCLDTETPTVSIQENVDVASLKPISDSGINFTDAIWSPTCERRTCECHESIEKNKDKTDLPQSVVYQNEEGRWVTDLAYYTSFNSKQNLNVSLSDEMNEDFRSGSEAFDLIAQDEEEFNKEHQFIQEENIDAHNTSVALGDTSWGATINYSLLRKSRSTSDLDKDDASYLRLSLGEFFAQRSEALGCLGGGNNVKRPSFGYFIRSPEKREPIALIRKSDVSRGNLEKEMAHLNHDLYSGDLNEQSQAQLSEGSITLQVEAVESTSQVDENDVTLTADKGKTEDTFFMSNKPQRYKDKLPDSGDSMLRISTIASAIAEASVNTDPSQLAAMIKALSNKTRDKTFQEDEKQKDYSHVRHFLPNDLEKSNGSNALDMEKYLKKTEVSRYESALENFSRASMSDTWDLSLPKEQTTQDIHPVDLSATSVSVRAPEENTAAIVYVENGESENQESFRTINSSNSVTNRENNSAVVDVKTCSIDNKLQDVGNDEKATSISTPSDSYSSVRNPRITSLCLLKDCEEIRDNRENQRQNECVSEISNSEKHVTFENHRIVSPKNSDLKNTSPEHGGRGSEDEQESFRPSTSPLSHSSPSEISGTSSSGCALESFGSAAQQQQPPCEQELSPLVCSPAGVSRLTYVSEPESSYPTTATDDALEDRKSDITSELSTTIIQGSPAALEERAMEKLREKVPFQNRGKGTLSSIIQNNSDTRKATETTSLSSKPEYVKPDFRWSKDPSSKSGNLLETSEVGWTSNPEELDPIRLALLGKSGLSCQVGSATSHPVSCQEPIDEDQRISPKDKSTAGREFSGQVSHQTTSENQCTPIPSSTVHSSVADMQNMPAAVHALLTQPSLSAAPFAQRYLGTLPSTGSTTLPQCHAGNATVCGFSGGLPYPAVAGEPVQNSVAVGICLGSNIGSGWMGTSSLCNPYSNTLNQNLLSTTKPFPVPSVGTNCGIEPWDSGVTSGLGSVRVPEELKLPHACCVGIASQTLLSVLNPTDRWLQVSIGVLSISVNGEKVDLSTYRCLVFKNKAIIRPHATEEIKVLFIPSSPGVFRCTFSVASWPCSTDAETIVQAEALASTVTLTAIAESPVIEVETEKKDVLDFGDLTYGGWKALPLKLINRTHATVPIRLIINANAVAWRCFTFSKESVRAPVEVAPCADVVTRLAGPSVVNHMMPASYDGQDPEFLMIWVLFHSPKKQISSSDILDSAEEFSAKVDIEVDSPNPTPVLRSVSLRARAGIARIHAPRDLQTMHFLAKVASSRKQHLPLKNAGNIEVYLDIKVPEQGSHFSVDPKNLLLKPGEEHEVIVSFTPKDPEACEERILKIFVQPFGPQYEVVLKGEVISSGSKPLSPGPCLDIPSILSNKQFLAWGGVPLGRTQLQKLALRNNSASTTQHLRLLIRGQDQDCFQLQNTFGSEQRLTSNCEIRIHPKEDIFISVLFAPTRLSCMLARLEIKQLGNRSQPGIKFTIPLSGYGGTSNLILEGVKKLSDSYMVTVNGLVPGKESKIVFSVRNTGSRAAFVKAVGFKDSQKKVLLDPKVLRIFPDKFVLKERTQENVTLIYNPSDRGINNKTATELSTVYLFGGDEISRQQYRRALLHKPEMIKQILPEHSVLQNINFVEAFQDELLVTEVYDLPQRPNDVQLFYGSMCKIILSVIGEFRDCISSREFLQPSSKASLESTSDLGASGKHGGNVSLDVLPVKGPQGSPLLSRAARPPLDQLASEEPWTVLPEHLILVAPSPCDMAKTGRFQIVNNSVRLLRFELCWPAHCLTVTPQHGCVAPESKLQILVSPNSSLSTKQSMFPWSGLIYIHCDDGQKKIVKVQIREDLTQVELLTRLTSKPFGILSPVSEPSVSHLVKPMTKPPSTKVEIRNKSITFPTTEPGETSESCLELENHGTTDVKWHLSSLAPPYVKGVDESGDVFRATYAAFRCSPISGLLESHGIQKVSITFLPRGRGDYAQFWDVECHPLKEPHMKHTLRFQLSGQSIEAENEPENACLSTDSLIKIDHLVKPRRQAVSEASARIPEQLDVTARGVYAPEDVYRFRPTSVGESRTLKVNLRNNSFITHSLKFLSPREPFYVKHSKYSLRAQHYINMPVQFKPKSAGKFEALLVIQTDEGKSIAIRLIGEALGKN
UniProt O00311: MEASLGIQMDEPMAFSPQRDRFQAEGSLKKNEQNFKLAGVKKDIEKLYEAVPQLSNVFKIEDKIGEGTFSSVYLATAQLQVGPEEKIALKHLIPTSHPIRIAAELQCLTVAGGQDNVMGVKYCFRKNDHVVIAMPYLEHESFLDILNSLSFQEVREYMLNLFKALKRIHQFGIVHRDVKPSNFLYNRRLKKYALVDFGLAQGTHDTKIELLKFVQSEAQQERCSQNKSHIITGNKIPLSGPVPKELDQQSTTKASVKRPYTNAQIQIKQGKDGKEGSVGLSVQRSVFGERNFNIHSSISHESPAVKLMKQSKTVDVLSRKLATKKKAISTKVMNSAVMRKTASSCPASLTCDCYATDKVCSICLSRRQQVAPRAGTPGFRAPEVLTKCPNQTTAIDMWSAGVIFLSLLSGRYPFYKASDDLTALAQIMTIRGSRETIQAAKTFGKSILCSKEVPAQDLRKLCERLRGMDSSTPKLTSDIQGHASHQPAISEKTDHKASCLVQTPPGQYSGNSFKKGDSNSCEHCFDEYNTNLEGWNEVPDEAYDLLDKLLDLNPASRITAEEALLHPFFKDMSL
UniProt Q9Y232: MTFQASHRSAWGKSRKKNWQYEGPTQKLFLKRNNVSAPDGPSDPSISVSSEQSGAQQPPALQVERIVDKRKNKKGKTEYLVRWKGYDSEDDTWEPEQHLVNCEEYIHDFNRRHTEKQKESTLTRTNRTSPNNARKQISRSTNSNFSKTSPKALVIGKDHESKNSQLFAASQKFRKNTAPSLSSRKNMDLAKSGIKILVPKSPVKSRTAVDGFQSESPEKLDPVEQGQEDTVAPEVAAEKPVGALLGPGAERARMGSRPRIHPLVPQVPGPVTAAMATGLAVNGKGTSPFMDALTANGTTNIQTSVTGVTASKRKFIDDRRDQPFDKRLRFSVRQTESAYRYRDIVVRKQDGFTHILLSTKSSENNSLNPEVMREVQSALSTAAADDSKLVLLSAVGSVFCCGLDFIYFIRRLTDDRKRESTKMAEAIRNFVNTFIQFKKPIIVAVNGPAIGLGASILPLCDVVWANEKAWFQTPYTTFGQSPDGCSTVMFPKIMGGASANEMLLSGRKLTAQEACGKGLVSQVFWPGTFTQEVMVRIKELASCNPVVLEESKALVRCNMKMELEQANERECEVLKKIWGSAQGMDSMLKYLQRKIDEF
UniProt Q00535, whole entry, looked up: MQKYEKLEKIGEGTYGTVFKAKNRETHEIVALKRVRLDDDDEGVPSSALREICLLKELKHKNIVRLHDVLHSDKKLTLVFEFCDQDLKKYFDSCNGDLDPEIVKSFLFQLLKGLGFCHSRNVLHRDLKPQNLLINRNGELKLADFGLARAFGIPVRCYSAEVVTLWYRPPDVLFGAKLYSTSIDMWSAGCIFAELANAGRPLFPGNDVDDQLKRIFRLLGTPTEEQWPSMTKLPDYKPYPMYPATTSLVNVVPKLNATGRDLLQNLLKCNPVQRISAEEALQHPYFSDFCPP
UniProt Q8N960: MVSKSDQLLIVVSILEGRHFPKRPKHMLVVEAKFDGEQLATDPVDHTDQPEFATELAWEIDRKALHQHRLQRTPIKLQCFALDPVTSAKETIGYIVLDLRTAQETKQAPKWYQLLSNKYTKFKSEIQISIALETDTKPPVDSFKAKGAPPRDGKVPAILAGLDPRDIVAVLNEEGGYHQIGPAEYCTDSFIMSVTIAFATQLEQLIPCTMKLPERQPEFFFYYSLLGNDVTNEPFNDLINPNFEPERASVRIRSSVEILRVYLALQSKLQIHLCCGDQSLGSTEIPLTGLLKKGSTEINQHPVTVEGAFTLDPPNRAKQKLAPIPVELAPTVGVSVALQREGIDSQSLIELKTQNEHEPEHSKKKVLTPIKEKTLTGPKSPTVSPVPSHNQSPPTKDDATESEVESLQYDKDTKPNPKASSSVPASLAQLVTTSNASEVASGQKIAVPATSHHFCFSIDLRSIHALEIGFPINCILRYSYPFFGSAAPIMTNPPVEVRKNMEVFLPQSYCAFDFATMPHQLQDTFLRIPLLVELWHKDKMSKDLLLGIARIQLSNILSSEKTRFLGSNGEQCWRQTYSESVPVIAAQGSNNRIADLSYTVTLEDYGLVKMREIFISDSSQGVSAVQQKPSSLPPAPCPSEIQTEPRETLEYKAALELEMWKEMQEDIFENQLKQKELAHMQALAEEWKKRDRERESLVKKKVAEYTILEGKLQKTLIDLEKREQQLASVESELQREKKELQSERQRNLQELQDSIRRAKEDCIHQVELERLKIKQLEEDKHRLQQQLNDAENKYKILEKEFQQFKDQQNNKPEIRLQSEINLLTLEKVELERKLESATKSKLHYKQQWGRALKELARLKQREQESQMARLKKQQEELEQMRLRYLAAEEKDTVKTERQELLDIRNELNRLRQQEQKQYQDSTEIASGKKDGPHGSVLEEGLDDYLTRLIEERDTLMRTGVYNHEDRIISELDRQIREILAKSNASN
UniProt O95319: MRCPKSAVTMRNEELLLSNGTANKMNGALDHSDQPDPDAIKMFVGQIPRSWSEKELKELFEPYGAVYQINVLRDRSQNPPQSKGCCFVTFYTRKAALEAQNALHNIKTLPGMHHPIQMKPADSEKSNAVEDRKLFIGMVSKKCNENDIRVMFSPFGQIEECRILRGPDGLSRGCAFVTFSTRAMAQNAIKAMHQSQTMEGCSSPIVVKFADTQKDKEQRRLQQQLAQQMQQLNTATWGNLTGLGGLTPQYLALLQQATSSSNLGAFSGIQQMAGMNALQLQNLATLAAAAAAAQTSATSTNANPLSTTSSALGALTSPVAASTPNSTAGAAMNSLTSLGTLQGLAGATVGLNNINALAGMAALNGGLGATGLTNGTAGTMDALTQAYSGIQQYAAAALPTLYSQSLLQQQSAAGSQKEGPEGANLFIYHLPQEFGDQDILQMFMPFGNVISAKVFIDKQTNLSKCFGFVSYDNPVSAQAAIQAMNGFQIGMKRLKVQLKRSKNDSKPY
UniProt P23528, whole entry, looked up: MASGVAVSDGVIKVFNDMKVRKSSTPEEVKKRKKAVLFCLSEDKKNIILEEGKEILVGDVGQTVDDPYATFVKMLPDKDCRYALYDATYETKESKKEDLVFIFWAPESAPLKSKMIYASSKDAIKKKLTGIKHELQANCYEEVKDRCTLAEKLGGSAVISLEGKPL

Each target was assayed with C1CCN(C1)C(=O)NC2=CC=CC(=C2)NC3=NC=C(C(=N3)NCCC4=CN=CN4)Br (assay: log2 fold change, soluble protein after heating vs DMSO (PISA); higher = thermal stabilisation; K562 lysate, 10 uM; active = over 0.2 and 3.5 SD of the protein, either way, in both replicates (recomputed)).
How it was run: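 Soluble protein was defined as the supernatant remaining after 21,000xg for 90 min, following pooling of heated aliquots and adjustment to 0.5% NP-40 at 4°C. Before that, crude K562 extract at 1 mg/mL protein in PBS pH 7.4 with 1 mM MgCl2 was treated with 10 μM compound for 30 min and heated for 3 min across 48°C-58°C. Quantification used TMTpro 16plex LC-MS/MS with channel sums equalised, and values are log-two fold changes in thermal stability relative to solvent controls from duplicates.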

log2 fold change, inactive:
CDC40 (UniProt O60508) -0.023, CEP41 (UniProt Q9BYV8) -0.035, CENPP (UniProt Q6IPU0) -0.039, CDC42BPA isoform 6 (UniProt Q5VT25) -0.032, CFAP410 (UniProt O43822) 0.054, CDK4 (UniProt P11802) 0, CDKN1C (UniProt P49918) 0.053, CDCA8 (UniProt Q53HL2) -0.01, CENPJ (UniProt Q9HC77) -0.254, CDC42EP4 (UniProt Q9H3Q1) -0.069, CEBPZOS (UniProt A8MTT3) -0.011, CEP85 isoform 2 (UniProt Q6P2H3) 0.021, CEP192 (UniProt Q8TEP8) -0.046, CDR2L (UniProt Q86X02) -0.063, CDC7 (UniProt O00311) -0.003, CDR2 (UniProt Q01850) -0.058, CDSN (UniProt Q15517) -0.313, CDYL (UniProt Q9Y232) 0.011, CDK5 (UniProt Q00535) 0.367, CEP120 (UniProt Q8N960) 0.168, CELF2 isoform 3 (UniProt O95319) -0.053, CFL1 (UniProt P23528) 0.026, CEBPB (UniProt P17676) -0.001
